# In PubChem BioAssay AID651660 (Broad Institute, 2012):
# The chains behind the UniProt entries cited, without tags or fusion partners. Where a name states a change or a piece, a line headed by the entry shows the natural chain unless it says otherwise.
# UniProt P43351: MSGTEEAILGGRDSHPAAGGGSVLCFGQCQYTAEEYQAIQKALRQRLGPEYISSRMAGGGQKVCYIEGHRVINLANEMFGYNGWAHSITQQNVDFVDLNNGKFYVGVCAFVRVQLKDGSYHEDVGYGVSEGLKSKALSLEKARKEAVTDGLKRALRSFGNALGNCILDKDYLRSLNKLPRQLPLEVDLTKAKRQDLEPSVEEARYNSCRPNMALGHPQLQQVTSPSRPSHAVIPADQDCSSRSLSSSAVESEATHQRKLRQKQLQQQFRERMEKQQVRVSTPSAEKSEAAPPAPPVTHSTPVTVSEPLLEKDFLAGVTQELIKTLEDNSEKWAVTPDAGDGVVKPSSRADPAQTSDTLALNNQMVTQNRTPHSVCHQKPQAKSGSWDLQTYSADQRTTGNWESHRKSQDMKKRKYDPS
# The campaign covered roughly 1,900 compounds. About 15 (0.8%) were called active.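 Rule for the calls: active = every replicate shows at least 50% inhibition; inconclusive = mean inhibition at least 50% but some replicate below; inactive = the rest.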 The list shows a part of the results.
# Target: DNA repair protein RAD52 homolog (Homo sapiens) (UniProt P43351)
# Test: inhibition of RAD52-mediated strand annealing – biochemical, FRET, single point, primary screen (AID 651660);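 note: 0% = median of neutral control wells and 100% = median of positive control wells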
# Conditions: Recombinant RAD52 ssDNA annealing, FRET fluorescence, 30 min; at 18.7 µM; active compounds read high
row,SMILES,inhibition
1,COc1ccccc1C(CCN(Cc1ccccc1)C(C)=O)c1ccco1 (stereo not given),inactive: -5.48%
2,O=C(CCSc1ccccc1)N1CCCC1,inactive: -12%
3,CCCCNc1ccc(C(=O)OCCN(C)C)cc1,inactive: 5.27%
4,COc1ccc2[nH]c(=O)c(CN(C(=O)c3ccco3)C(C)C)cc2c1,inactive: -2.27%
5,Cc1ccccc1C(=O)Nc1ccccc1C(=O)NCC(C)C,inactive: -0.974%
6,O=C(/C=C/c1ccccc1)/C=C/c1ccccc1,inactive: -25.5%
7,CC(OC(=O)c1cc(=O)[nH]c2ccccc12)C(=O)c1ccccc1 (stereo not given),inactive: 1.44%
8,Cc1cnc(C(=O)NCCc2ccc(S(=O)(=O)NC(=O)NC3CCCCC3)cc2)cn1,inactive: -13.1%
9,CCc1cc2c(=O)c(-c3nc(C)cs3)c(CCCC(=O)O)oc2cc1O,inactive: -8.02%
10,CC1(C)C2CCC1(C(=O)O)c1nc3ccccc3nc12 (stereo not given),inactive: -6.74%
11,Cc1ccsc1/C=C/C1=NCCCN1C,inactive: 5.97%
12,COc1ccc(C=O)c(OC)c1,inactive: 1.28%
13,Fc1cc(F)cc(NC(=S)NCCCN2CCOCC2)c1,inactive: -16.2%
14,CCCCC[C@H](O)/C=C/[C@@H]1[C@@H](C/C=C\CCCC(=O)OC)[C@@H](O)C[C@H]1O,inactive: 32.3%
15,CCN(CC)CCNc1ccc(CO)c2sc3ccccc3c(=O)c12,active: 61.5%
16,Cc1ccc(O)c(CCc2ccccc2)n1,inactive: -5.88%
17,Cn1nc(-c2ccccn2)nc2c(=O)n(C)c(=O)nc1-2,inactive: 9.61%
18,CCN(CC)CCOC(=O)C(c1ccccc1)c1ccccc1,inactive: -0.371%
19,OC(CCCN1CCCCC1)(c1ccccc1)c1ccccc1,inactive: 10.1%
20,COC1(C)CC2C(CC1OC(=O)c1cc([N+](=O)[O-])cc([N+](=O)[O-])c1)C2(C)C (stereo not given),inactive: 2.54%
21,COc1ccccc1NC(=O)C12CCC(C)(C(=O)C1)C2(C)C (stereo not given),inactive: -4.76%
22,C[C@]12CC[C@@H]3c4ccc(OS(=O)(=O)O)cc4CC[C@H]3[C@@H]1CCC2=O,inactive: 6.12%
23,Cc1ccc(S(=O)(=O)NC(=O)NN2CCCCCC2)cc1,inactive: -5.47%
24,COc1ccc(CCn2c(C)nc3c(c(=O)c4ccccc4n3C)c2=O)cc1,inactive: -5.51%
25,O=c1nc2sc3ccccc3n2c(=O)n1-c1ccc(Cl)cc1,inactive: 4.32%

row,SMILES,inhibition
1,O=C(OCCN1CCOCC1)c1cccs1,inactive: -2.59%
2,CCCC(CCC)C(=O)OC1C[C@H]2CC[C@@H](C1)[N+]2(C)C (stereo not given in full),inactive: 2.65%
3,c1ccc(Cn2ncc3c(Nc4ccccc4)ncnc32)cc1,inactive: 4.07%
4,COc1cc2c(cc1OC)CN(C(=O)c1ccc(S(=O)(=O)N(C)c3ccccc3)cc1)CC2,inactive: 2.83%
5,CCOc1ccccc1C(=O)NCCC(=O)O,inactive: -11.9%
6,Cc1cc(-c2nn(-c3ccccc3F)cc2CN2CCCC(O)C2)c(C)s1 (stereo not given),inactive: -16.4%
7,OCCN(Cc1nc(-c2ccc3c(c2)OCO3)no1)Cc1cccs1,inactive: 2.4%
8,Cc1cc(-c2ccccc2)nnc1NCCN1CCOCC1,inactive: -6.44%
9,OC[C@H]1O[C@@H](n2cnc3c(Nc4ccccc4)ncnc32)[C@H](O)[C@@H]1O,inactive: 1.34%
10,C=CCNC(=S)N1CCc2c([nH]c3ccccc23)C1C (stereo not given),inactive: -6.75%
11,Cc1nonc1CN(C)C(=O)c1ccc(OC2CCN(Cc3ccccn3)CC2)cc1,inactive: -15.3%
12,COc1ccc(-c2onc(C)c2-c2ccc(C(=O)OC(C)C)o2)c(O)c1,inactive: 9.48%
13,O=C(Oc1cccccc1=O)c1ccccc1,inactive: -11.3%
14,Cn1c2c(c(=O)[nH]c1=O)C(c1ccc(O)cc1)C1=C(N2)c2ccccc2C1=O (stereo not given),inactive: 43.2%
15,CN(C)CCOCCOc1ccc(Cl)cc1Br,inactive: -5.5%
16,O=c1c2ccccc2nc2n1-c1ccccc1CCC2,inactive: 6.7%
17,O=C(O)CCCCCN1C(=O)C(=O)/C(=C(/O)c2ccccc2)C1c1ccccc1 (stereo not given),inactive: -8.36%
18,CCc1ccc(CN(C)Cc2nc(Cc3ccccc3)no2)nc1,inactive: -14.8%
19,CC(C)(C)c1ccc(C(O)CCCN2CCC(C(O)(c3ccccc3)c3ccccc3)CC2)cc1 (stereo not given),inactive: 44.9%
20,CC(COc1ccccc1)NC(C)C(O)c1ccc(O)cc1 (stereo not given),inactive: -0.424%
21,CC(=O)Nc1nc(CCC(C)C)cc2c1c(=O)oc1ccccc12,inactive: -7.69%
22,c1ccc(Cn2nnc3cnccc32)cc1,inactive: -0.564%
23,CCOc1ccc(C(=O)/C=C/c2cc(OC)c(OC)c(OC)c2)cc1,inactive: 1.6%
24,CCOc1cc2c(cc1OCC)C(c1ccccc1)N(c1ccc(C(=O)O)cc1)C(=O)C2 (stereo not given),inactive: -2.63%
25,O=C(CCN1CCC(c2ccccc2)C1)c1ccc2c(c1)OCCO2 (stereo not given),inactive: -11%

# In a second layout: 3 of the compounds above.
row | SMILES | inhibition
5 | CCOc1ccccc1C(=O)NCCC(=O)O | inactive: -11.9%
6 | Cc1cc(-c2nn(-c3ccccc3F)cc2CN2CCCC(O)C2)c(C)s1 (stereo not given) | inactive: -16.4%
7 | OCCN(Cc1nc(-c2ccc3c(c2)OCO3)no1)Cc1cccs1 | inactive: 2.4%
